Measurements taken from patent publication US20160193231A1, “RETT SYNDROME AND TREATMENTS THEREFORE” (RETT SYNDROME RESEARCH TRUST, priority 2013, published 2016).
Entries after “also recorded” stand apart in the source; their conditions may differ. At least one structure is not confirmed: it was looked up by name or label, or the drawing left a doubt.

How the values were obtained:
[1] = tested on: 129.Mecp2^tm1.1Bird/Y mice; test: Survival (longevity) of treated Mecp2 null male mice; assay type: in vivo, mouse; details: preliminary trial, subcutaneous fluvastatin vs sham dose
[2] = tested on: 129.Mecp2^tm1.1Bird/+ females; test: Accelerating rotarod task, Mecp2 heterozygous females; assay type: in vivo, mouse; details: five-month-old females, fluvastatin 1x weekly; p=0.001
[3] = tested on: 129.Mecp2^tm1.1Bird/Y mice; test: Accelerating rotarod task, Mecp2 null males; assay type: in vivo, mouse
[4] = tested on: 129.Mecp2^tm1.1Bird/+ females; test: Serum cholesterol, Mecp2 heterozygous females; assay type: in vivo, mouse; details: at eight months
[5] = tested on: 129.Mecp2^tm1.1Bird/Y mice; test: Serum/plasma cholesterol, Mecp2 null males; assay type: in vivo, mouse
[6] = tested on: 129.Mecp2^tm1.1Bird/Y mice; test: Brain cholesterol intermediates by tandem mass spectrometry, Mecp2 null males; assay type: in vivo, mouse
[7] = tested on: 129.Mecp2^tm1.1Bird/Y mice; test: Liver lipid measurement, Mecp2 null males; assay type: in vivo, mouse; details: P70; fluvastatin p=0.02; lovastatin p=0.386
MECP2 mutant mice = test: Trait amelioration / symptom rescue in Mecp2 mutant mice; assay type: in vivo, mouse; details: male mice, drugs sub-cutaneously
NF-1 patients = details: clinical trials, Krab et al. JAMA 2008; cited from earlier work
Alzheimer's Disease = details: Sano et al. Neurology 2011; cited from earlier work
[8] = preliminary trial, subcutaneous fluvastatin vs sham dose

## CC(C)n1c(/C=C/C(O)CC(O)CC(=O)O)c(-c2ccc(F)cc2)c2ccccc21 (centres unmarked) [fluvastatin]
[1]
  lifespan: increased
[2]
  Rotarod performance / motor behavior, females: rescued; also recorded: improves
[3]; P56 treated null males vs vehicle, fluvastatin 3 mg/kg s.c. p=0.015, lovastatin […] s.c. p=0.009
  Rotarod performance: improves
[3]; [8]
  rotarod behavior: improved
[4]
  serum cholesterol levels, females: does not significantly change
[5]; by P70, fluvastatin p=0.001, lovastatin p=0.001
  plasma cholesterol: lowers
[5]; [8]
  serum cholesterol: decreased
[6]; P70, N=4 per group
  concentration of lanosterol in brain: slightly increases
[6]; P70, N=4 per group, p=0.04
  concentration of desmosterol in brain: significantly increases
[6]; preliminary trial, assessed by mass spectrometry
  levels of cholesterol biosynthesis products in the brain: improved levels of cholesterol biosynthesis products toward wild type levels
[7]
  elevated lipid concentration in livers: ameliorates

## CCC(C)(C)C(=O)O[C@H]1C[C@@H](C)C=C2C=C[C@H](C)[C@H](CC[C@@H]3C[C@@H](O)CC(=O)O3)[C@H]21 [simvastatin]
MECP2 mutant mice
  rescue of motor traits and longevity: varying degrees of rescue
NF-1 patients
  effect on learning disabilities and attention deficits in NF-1 patients: not observed to show significant effect
Alzheimer's Disease
  outcome of clinical trial for Alzheimer's Disease: failed
